Positions count from the first letter of the chain named. Names may count otherwise. These are yes or no findings as the source states them, for the method shown. In cells and extracts the contact can be indirect. Some entries that bind do so weakly or less than the wild type. Where a sequence is shown, tags or fusion partners need not be part of it.

Amino acid sequences for entries named in this document (tags omitted).
UniProt O60238: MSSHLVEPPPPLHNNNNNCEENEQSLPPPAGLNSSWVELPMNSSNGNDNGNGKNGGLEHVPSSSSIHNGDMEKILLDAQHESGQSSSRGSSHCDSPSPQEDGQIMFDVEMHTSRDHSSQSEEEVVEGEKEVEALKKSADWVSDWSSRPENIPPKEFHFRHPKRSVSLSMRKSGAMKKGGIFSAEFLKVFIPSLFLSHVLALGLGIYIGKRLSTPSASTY
UniProt Q12983: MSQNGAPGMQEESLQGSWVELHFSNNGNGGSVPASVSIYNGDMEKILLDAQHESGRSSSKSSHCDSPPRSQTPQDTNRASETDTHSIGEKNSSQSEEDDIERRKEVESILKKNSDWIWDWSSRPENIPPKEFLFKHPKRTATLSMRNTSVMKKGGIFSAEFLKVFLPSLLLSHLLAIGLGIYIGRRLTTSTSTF
UniProt P63208: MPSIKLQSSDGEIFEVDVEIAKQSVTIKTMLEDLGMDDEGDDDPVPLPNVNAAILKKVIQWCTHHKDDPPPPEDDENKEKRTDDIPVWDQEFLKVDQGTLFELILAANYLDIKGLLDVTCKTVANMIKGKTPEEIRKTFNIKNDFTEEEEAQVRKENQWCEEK

The record followed here is article PMC10308357.

For one test, the target named is T1, FBXL4-3xFlag (human) (UniProt Q9UKA2).
T1 sequence: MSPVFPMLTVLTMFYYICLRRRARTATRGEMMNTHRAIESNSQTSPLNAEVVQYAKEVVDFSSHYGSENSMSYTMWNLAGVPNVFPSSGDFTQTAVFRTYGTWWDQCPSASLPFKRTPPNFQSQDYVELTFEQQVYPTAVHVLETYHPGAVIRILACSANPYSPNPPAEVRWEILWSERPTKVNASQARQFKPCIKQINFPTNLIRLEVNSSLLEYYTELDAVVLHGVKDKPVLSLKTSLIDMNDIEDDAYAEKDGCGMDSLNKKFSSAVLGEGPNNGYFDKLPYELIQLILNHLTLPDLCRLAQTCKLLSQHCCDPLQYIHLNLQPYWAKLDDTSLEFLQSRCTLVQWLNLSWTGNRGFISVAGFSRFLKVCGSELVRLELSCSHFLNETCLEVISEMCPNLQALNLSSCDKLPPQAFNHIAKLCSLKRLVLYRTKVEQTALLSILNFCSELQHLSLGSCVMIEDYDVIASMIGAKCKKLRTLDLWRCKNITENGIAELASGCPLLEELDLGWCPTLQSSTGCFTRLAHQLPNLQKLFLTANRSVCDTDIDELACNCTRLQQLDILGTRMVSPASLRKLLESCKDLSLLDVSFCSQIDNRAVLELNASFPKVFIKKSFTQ
The test is described as follows: co-IP; Flag M2 affinity gel, 2 h, on lysates of transfected hTERT-RPE1 FlpIN TREX cells; NP40 buffer (0.5% NP40, 25 mM Tris pH 7.5, 100 mM NaCl, 50 mM NaF); eluted with Flag peptide; blotted for Flag and GFP or SKP1.

Test [1] concerns the target T2, FBXL4 [R482W]-3xFlag (human) (UniProt Q9UKA2).
T2 sequence: T1 sequence with R482W
The description is as above.

For the next test, the target named is GFP-NIX (UniProt O60238). The test is described as follows: co-IP; GFP nano-trap (GFP-nanobody) beads, 1 h, on lysates of co-transfected hTERT-RPE1 FlpIN TREX cells; NP40 buffer (0.5% NP40, 25 mM Tris pH 7.5, 100 mM NaCl, 50 mM NaF); eluted in sample buffer; blotted for Flag and GFP.
The next test addresses GFP-BNIP3 (UniProt Q12983). The test is described as above.

Regarding SKP1 (from UniProt P63208 1-163), the binding entry (in the test with FBXL4-3xFlag (human); in test [1]) was “binds” each time.

B1: FBXL4-3xFlag (protein, UniProt Q9UKA2 1-621)
chain: T1 sequence
With B1, the binding entry in the test with GFP-NIX and in the test with GFP-BNIP3 was “binds” throughout.

B2: FBXL4 [R482W]-3xFlag (protein, UniProt Q9UKA2 1-621)
chain: T1 sequence with R482W
In the case of B2, the binding result with GFP-NIX and with GFP-BNIP3 was “binds” each time.
